These are yes or no findings as the source states them, for the method shown. Binding seen in cells or lysates may run through a third protein. Some entries that bind do so weakly or less than the wild type.

Amino acid sequences for entries named in this document (tags omitted).
UniProt P04150: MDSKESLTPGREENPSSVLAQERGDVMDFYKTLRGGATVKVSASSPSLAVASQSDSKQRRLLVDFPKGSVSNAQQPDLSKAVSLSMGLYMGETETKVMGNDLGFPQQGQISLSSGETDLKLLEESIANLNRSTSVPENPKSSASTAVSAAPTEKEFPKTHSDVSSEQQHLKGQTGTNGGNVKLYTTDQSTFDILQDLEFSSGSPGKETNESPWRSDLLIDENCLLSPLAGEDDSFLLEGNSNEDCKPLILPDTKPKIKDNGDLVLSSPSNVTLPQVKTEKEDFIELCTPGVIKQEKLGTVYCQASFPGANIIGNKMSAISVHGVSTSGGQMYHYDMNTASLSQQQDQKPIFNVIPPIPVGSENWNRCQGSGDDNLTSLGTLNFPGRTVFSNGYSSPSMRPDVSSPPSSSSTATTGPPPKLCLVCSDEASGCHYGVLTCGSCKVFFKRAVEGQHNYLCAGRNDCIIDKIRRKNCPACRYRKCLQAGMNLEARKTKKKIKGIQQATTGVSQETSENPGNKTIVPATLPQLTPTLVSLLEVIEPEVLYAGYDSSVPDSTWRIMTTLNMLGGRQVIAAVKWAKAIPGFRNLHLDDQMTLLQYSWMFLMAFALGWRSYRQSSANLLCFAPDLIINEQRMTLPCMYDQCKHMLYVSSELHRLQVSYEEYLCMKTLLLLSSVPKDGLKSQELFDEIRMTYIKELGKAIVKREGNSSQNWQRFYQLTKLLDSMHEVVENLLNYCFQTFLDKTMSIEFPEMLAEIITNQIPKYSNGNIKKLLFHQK
UniProt Q9Y5Q3: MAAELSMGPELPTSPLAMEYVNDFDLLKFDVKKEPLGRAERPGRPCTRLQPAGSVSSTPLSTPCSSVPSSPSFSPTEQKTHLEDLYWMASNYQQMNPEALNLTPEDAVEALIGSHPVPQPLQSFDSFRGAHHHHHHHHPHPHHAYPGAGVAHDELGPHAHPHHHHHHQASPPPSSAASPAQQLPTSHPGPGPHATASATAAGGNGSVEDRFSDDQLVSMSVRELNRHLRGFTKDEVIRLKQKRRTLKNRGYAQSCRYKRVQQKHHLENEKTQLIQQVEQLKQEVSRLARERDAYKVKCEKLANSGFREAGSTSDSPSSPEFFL

For this experiment, the target named is Ten-eleven translocation methylcytosine dioxygenase 2 (TET2) (human (endogenous in monocyte-derived tolDCs)) (UniProt Q6N021). The experiment can be described thus: co-IP.

Regarding “Glucocorticoid Receptor (GR) (from UniProt P04150 1-777)”, the binding entry is given as “binds”.
To MAFB (from UniProt Q9Y5Q3 1-323) belongs “binds”.

For the origin of these results see paper doi:10.1101/2021.07.27.453975.
